Data published in article PMC5134568.
The exact form of at least one protein or probe is not confirmed. Results from cells or extracts need not show a direct contact. For some assays here: No signal at the amounts used counts as a negative.

The chains behind the UniProt entries cited, without tags or fusion partners. Residues count along the entry.
UniProt Q02496, 21-630: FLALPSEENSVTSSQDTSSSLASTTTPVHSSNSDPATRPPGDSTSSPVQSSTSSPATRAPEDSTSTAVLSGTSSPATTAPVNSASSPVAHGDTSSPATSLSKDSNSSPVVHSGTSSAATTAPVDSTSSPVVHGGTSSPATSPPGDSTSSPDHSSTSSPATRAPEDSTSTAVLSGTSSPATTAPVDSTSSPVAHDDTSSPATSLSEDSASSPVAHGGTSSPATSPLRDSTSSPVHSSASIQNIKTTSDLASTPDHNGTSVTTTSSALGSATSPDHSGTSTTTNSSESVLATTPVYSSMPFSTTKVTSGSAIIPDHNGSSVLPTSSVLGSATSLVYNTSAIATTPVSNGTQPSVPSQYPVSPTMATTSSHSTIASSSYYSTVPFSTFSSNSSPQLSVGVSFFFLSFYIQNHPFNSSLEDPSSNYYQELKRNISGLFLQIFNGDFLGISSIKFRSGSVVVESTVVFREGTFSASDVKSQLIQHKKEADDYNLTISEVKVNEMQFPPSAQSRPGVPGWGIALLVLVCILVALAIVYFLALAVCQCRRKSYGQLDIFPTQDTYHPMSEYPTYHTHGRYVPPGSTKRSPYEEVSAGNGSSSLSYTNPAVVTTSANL
UniProt Q99JW5, 24-315: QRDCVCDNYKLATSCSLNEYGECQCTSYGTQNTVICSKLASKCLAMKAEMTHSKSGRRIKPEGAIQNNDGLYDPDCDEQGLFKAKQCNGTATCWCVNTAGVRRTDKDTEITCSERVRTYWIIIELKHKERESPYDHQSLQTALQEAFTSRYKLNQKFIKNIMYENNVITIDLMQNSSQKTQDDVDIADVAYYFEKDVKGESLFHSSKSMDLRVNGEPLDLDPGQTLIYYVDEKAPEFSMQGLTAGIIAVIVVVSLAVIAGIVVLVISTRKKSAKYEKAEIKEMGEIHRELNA
UniProt P16422, 24-314: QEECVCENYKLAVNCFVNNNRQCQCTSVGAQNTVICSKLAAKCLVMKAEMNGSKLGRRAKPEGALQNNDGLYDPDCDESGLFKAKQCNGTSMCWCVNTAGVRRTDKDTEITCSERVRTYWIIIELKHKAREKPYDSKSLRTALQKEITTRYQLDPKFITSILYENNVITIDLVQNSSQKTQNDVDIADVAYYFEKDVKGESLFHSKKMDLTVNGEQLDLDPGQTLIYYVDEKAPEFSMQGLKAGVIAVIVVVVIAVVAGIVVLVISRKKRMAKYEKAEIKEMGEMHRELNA

How the values were obtained:
[1] = biological target: muc1 (mucin1, on caerulein-treated Panc02 cells) (mouse (Panc02 murine pancreatic cancer cells)) (UniProt Q02496); assay: fluorescence signal-on of beacon on cells; conditions: no signal on untreated Panc02, 5' amine, 3' BHQ, live cells, 5 min at room temperature, probe annealed at 94 and 72 °C, binding buffer and salt not given (0.1 M TE pH 7.0 only for QD conjugation), protein on the cell surface, label: 5' QD525 (cy5.5 in NIF version), 3' BHQ quencher, folded or branched DNA
[2] = biological target: EpCAM (on caerulein-treated Panc02 cells) (mouse (Panc02 murine pancreatic cancer cells)) (UniProt Q99JW5); assay: fluorescence signal-on of beacon on cells; conditions: 3' BHQ2, live cells, 5 min at room temperature, probe annealed at 94 and 72 °C, binding buffer and salt not given (0.1 M TE pH 7.0 only for QD conjugation), protein on the cell surface, label: 5' QD565 (cy5.5 in NIF version), 3' BHQ2 quencher, folded or branched DNA
[3] = biological target: EpCAM (human, on MDA-MB-231 and Kato III cells) (human) (UniProt P16422); assay: flow cytometry and confocal fluorescence on cells; conditions: HEK-293T (EpCAM-negative) 0% positive, 5' amine, 3' BHQ2, live cells, 5 min at room temperature, probe annealed at 94 and 72 °C, binding buffer and salt not given (0.1 M TE pH 7.0 only for QD conjugation), protein on the cell surface, label: 5' QD565 (cy5.5 in NIF version), 3' BHQ2 quencher, folded or branched DNA

“AACCGCCCAAATCCCTAAGCTTTGGATACCCTGGCACAGACACACTACACACGCACA [muc1 ALB]”: binds [1].

“GGGACACAATGGACGTCCGTAGTTCTGCGGCCGACATGAGAG [EpCAM mutant ALB]”: no binding ([2]; 1 pmol mutant ALB, signal disappeared, 5' amine).

“GGGACACAATGGACGTCCGTAGTTCTGGCTGACTGGTTACCCCTCTAACGGCCGACATGAGAG [EpCAM ALB]”: binds ([3]; Kato III cells); binds ([3]; MDA-MB-231 cells); binds ([2]; no signal on untreated Panc02, 5' amine).
